# Construct, isoform or probe ends are uncertain for at least one entry. The comparison behind a weaker result is the experiment's own reference, which may not be listed here. Where a protein sequence is shown, tags need not be part of it.
# Target: T1, PERIANTHIA (PAN) (Arabidopsis thaliana) (UniProt Q9SX27)
# T1 sequence (looked up): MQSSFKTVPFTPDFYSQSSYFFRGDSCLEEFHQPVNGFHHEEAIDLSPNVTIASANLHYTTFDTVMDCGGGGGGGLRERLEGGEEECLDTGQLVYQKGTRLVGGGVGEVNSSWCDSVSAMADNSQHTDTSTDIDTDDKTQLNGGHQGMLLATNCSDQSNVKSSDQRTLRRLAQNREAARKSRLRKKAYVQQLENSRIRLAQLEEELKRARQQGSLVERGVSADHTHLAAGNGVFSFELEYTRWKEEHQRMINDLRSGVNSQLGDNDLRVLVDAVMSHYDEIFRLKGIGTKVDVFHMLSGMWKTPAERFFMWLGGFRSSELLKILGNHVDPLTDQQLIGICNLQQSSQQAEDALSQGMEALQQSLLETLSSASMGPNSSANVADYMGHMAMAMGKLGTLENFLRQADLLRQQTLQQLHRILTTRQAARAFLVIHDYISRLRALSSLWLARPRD
# Assay: EMSA
# Settings: shifted band, weaker than AAGAAT; with or without 0.9 or 20 mM DTT or 2 mM diamide, 30 min in the dark before probe addition; protein translated in vitro; residues 1-452; label: 5' 32P
sequence,measurement,value
CTACGTCACTATTTTACTTACGTCATAG (double strand) [as-1-like],binding result,binds more weakly
